# Results are given in words; binding and its absence hold for the method and conditions named. For part of these data: Binding seen in cells or lysates may run through a third protein. Some results given as binding are weak or reduced against the parent protein; the word gives no strength. For part of these data: Where a sequence is shown, tags or fusion partners need not be part of it.
# Protein sequences, listed by entry. Tags and fused reporters are not part of them. Lines headed by an entry give the natural chain unless they say otherwise; changes in a name come on top.
# UniProt Q8N6T7: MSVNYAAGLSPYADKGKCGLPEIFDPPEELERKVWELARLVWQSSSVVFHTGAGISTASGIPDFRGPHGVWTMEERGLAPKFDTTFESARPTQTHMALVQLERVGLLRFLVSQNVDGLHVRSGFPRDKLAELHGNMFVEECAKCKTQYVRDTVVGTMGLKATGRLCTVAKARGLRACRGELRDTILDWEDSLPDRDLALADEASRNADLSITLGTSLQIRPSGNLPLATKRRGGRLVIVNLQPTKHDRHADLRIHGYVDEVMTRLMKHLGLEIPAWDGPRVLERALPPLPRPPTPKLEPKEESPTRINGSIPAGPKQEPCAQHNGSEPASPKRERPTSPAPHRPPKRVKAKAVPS
# UniProt Q00987: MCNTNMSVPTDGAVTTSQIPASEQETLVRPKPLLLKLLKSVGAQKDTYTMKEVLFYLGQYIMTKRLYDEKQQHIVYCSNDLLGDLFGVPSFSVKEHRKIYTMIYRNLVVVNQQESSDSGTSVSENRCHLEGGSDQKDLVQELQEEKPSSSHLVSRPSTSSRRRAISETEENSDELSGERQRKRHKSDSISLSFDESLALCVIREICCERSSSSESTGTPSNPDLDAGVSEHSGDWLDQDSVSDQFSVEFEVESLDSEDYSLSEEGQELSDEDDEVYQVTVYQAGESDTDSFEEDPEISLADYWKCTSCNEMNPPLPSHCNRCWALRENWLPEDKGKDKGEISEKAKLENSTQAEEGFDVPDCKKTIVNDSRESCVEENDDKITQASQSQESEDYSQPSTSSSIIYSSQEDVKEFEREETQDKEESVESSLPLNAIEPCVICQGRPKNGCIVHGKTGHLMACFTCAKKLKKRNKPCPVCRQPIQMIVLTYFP
# Legend:
# Flag-SIRT6 S112A (human) = Flag-SIRT6 S112A (human) (UniProt Q8N6T7); experiment: co-IP; anti-Flag immunoprecipitates from HEK293 cells expressing Flag-SIRT6 or Flag-SIRT6 S112A, blotted for MDM2; also WT and ATM KO HEK293 cells
# Flag-SIRT6 (human) = Flag-SIRT6 (human) (UniProt Q8N6T7); experiment: as above
# [1] = molecular target: T1, GST-ATM-1 (residues 1–250) (human) (UniProt Q13315); experiment: pull-down; GST pull-down: bacterially expressed 6 × His SIRT6 incubated separately with GST-ATM fragments in 150 mM NaCl, 20 mM Tris-HCl pH 7.5, 5 mM MgCl2, 0.2 mM EDTA, 10% glycerol, 0.2% NP-40; Glutathione Sepharose; washed with TEN buffer (300 mM NaCl); both purified
# T1 sequence: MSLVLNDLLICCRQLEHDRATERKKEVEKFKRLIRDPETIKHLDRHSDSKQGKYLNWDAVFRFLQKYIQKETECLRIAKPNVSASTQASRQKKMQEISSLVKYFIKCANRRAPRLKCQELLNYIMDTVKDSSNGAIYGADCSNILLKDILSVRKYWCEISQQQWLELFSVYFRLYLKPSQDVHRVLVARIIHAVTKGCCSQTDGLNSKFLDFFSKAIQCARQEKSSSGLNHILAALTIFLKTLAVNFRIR
binding (Flag-SIRT6 S112A (human)),binding (Flag-SIRT6 (human)),binding [1],Substance
binds,binds,–,MDM2 (from UniProt Q00987 1-491)
–,–,binds weakly,His-SIRT6 (from UniProt Q8N6T7 1-355)
